These are yes or no findings as the source states them, for the method shown. In cells and extracts the contact can be indirect. Some entries that bind do so weakly or less than the wild type.

Sequences of proteins named here, by UniProt entry; tags and fusion partners are left off.
UniProt Q8VCC8: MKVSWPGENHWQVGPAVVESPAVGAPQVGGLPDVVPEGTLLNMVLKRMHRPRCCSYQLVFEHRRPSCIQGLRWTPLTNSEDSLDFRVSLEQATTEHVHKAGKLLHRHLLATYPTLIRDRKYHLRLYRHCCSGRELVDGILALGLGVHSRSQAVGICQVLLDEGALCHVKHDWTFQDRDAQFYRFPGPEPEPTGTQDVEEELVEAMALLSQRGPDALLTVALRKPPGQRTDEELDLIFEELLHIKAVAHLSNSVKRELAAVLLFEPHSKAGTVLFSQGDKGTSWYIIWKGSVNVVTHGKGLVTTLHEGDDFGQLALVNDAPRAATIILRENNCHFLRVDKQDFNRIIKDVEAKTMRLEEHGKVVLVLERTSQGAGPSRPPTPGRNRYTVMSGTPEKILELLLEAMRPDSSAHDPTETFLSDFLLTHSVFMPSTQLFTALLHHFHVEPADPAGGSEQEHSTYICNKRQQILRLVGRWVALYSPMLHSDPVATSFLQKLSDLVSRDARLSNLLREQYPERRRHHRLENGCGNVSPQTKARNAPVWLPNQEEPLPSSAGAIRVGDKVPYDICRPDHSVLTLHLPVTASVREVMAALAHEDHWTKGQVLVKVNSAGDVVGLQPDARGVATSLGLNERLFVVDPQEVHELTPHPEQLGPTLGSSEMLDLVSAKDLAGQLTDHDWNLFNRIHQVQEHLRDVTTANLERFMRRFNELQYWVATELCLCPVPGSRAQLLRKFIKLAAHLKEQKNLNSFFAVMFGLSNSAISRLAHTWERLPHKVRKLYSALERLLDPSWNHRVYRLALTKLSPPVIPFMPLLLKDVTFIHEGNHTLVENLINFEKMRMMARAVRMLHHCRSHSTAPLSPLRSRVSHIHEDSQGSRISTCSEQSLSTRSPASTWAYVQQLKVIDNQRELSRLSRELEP

The target in this experiment is exchange protein directly activated by cAMP 1 (Epac1) (mouse (endogenous in mouse ventricle and HL-1 myocytes)) (UniProt Q8VCC8). The experiment is described as follows: co-IP; reverse co-immunoprecipitation: mouse ventricle lysates precipitated with anti-Epac1 antibody, reblotted with anti-CD44 antibody; mice treated with 48-h isoproterenol.

B1: CD44 (receptor, UniProt P15379 23-778)
chain: QIDLNVTCRYAGVFHVEKNGRYSISRTEAADLCQAFNSTLPTMDQMKLALSKGFETCRYGFIEGNVVIPRIHPNAICAANHTGVYILVTSNTSHYDTYCFNASAPPEEDCTSVTDLPNSFDGPVTITIVNRDGTRYSKKGEYRTHQEDIDASNIIDDDVSSGSTIEKSTPEGYILHTYLPTEQPTGDQDDSFFIRSTLATIASTVHSKSHAAAQKQNNWIWSWFGNSQSTTQTQEPTTSATTALMTTPETPPKRQEAQNWFSWLFQPSESKSHLHTTTKMPGTESNTNPTGWEPNEENEDETDTYPSFSGSGIDDDEDFISSTIATTPRVSARTEDNQDWTQWKPNHSNPEVLLQTTTRMADIDRISTSAHGENWTPEPQPPFNNHEYQDEEETPHATSTTPNSTAEAAATQQETWFQNGWQGKNPPTPSEDSHVTEGTTASAHNNHPSQRITTQSQEDVSWTDFFDPISHPMGQGHQTESKDTDSSHSTTLQPTAAPNTHLVEDLNRTGPLSVTTPQSHSQNFSTLHGEPEEDENYPTTSILPSSTKSSAKDARRGGSLPTDTTTSVEGYTFQYPDTMENGTLFPVTPAKTEVFGETEVTLATDSNVNVDGSLPGDRDSSKDSRGSSRTVTHGSELAGHSSANQDSGVTTTSGPMRRPQIPEWLIILASLLALALILAVCIAVNSRRRCGQKKKLVINGGNGTVEDRKPSELNGEASKSQEMVHLVNKEPSETPDQCMTADETRNLQSVDMKIGV
For B1, the binding result is recorded as “binds”.

The values above are taken from article PMC10347873.
